Patent US12577529B2, “Methods for producing neural cells” (QUIVER HOLDINGS INC., priority 2021, dated 2026)
At least one compound was matched to its structure with a doubt left.

Test system: NGN2 neurons (human iPS cell-derived excitatory neurons)
Test: Optopatch excitability assay in NGN2 neurons
Format: cell-based
Text: To characterize the intrinsic excitability activity of human iPS cell-derived excitatory neurons with the Optopatch platform the two iPS cell lines, “11a” and “20b”, from Example 1 were used. These two iPS cell lines were derived from two neurologically healthy male subjects. The 11a and 20b iPS cells are converted into excitatory neurons using a transcriptional programming approach whereby the pro-neuronal transcription factor NEUROGENIN2 (NGN2) is overexpressed using doxycycline responsive lentiviral constructs as described in Example 1. This process drives the rapid conversion of iPS cells into neurons that resemble cortical excitatory neurons.
The resulting neurons are cryopreserved and subsequently thawed.
The thawed cells are co-cultured with primary rodent glia to facilitate neuronal electrophysiological maturation. To enable Optopatch measurements, the cells are transduced with lentiviral constructs expressing Optopatch components driven by the neuronal excitatory promoter CAMK2A and signals are recorded from the cells 2 weeks later. […]
Optopatch measurements are carried out in a custom-built ultra-widefield fluorescence microscope, as described herein. Using this platform, intrinsic excitability properties are recorded for 11a and 20b NGN2 neuronal cultures at DIV25 in the presence of synaptic blockers NBQX, D-AP5 and Gabazine to block AMPA, NMDA and GABA currents, respectively. A custom blue light stimulus protocol of three 500 ms blue light steps of increasing intensity (1, 15 and 75 mW/cm^2) followed by two 2 second ramps of linearly increasing intensity (0.5-10 mW/cm^2 and 0.5-110 mW/cm^2) is used to elicit a range of activity from individual neurons. ˜50 to 100 neurons are simultaneously stimulated and recorded in a single field of view.
High signal-to-noise ratio (SNR) fluorescence-time traces are generated, and action potentials can be detected with high fidelity. […]
Additional quantification of both the response to quinidine and retigabine in is determined using an Optopatch excitability assay. […]

CCOC(=O)Nc1ccc(NCc2ccc(F)cc2)cc1N [retigabine]
spike frequency (15 and 75 mW/cm^2 stimulation intensities): concentration dependent reduction of the spike frequency | spike frequency (highest concentration (30 μM), peak intensity (75 mW/cm^2)): the spike frequency is reduced | after hyperpolarization (via enhanced M-currents): deepening of the after hyperpolarization
